Test results reported in PMC12499889, “Voltage-matrix nanopore profiling for the discrimination of protein mixtures”.
The exact form of at least one protein or probe is not confirmed. Protein sequences can lack the tags named with them.

Target: T1, carcinoembryonic antigen (CEA) (UniProt P06731)
T1 sequence (looked up, limits assumed): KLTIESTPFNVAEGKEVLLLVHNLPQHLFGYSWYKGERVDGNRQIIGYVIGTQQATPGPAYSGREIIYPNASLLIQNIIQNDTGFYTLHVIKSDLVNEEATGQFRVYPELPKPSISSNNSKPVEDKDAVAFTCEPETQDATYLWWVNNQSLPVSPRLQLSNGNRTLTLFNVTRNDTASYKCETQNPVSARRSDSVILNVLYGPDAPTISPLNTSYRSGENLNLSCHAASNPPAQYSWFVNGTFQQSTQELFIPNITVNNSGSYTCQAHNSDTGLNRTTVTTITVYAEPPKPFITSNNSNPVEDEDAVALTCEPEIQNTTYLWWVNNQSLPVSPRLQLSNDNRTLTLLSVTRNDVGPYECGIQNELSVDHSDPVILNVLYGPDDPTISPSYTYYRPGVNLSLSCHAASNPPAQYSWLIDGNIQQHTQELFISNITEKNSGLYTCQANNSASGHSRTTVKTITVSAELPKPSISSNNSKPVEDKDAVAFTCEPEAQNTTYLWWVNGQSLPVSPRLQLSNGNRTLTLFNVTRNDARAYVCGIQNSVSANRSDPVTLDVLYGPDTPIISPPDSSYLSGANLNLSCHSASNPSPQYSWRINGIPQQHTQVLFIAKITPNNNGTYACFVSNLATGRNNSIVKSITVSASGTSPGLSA
Assay: binding assay
Details: reported value, assay method and conditions not given in this paper; 3.6 M LiCl, 10 mM HEPES-KOH pH 8.0; 1 uM aptamer incubated with 10 nM CEA for 1 h; temperature not stated; nanopore at -50 to -300 mV; commercial protein; single-stranded DNA

Question: With “TCGCGCGAGTCGTCTGGGAGCTACGTTTAGCGAGTCCGACGCTCGGTGCCTCTTCGGGAGGACGATGCGG [CEA DNA aptamer]” as the sequence, how does the Kd read?
Answer: 37.8 nM
